Data published in patent publication US9248145B2, “Two alkylresorcinol synthase genes from sorghum; cloning, expression, transformation and characterization” (The United States of America, as represented by The …, priority 2010, dated 2016).

Legend:
Experiment in all cases: Polyketide synthase enzyme assay, alkylresorcinol synthase activity
Type in all cases: biochemical, Oryza sativa
recombinant Os05g12180 = test system: recombinant Os05g12180
Description: (§1) Polyketide synthase enzyme assays, performed in triplicate, contained 100 mM potassium phosphate buffer (pH 7.0), 40 μM malonyl-CoA, 25 μM starter unit (e.g., palmitoyl-CoA), and 2 μg protein in a 200 μL volume at 30° C. for 15 min. […] Reactions were quenched by addition of 10 μL of 20% HCl, and products were extracted by phase partitioning with 1 ml of ethyl acetate. The organic phase (upper layer) obtained by centrifugation at ˜14,000×g for 1 min was transferred to a fresh tube, dried under vacuum, and subsequently analyzed by GC-EI-MS as a trimethysilyl (TMS) derivative. Product formation was quantified using selective ion monitoring at m/z 268, a fragment ion common to all alkylresorcinols, generated by benzylic cleavage of the alkyl side chain. The identification of the m/z 268 [(5-methyl-1,3 phenylene)bis(oxy)bis(TMS)]^+ base ion and the parent [M]^+ provide confirmation of the 5-alkylresorcinolic structure as well as the length and degree of saturation of the associated side chain (Occolowitz, 1964. Anal. Chem. 36:2177-2181; Suzuki et al. 1996, supra; Suzuki at al. 2003, supra).
(§2) Enzyme assays, performed in triplicate, for starter unit CoA kinetics contained 100 mM potassium phosphate buffer (pH 7.0), 40 μM [2-^14C]-malonyl-CoA (50-60 mCi/mmol, 1.85-2.22 GBq/mmol; American Radiolabeled Chemicals, Inc., St. Louis, Mo.), 1.43-10 μM starter unit (e.g., palmitoyl-CoA), and 0.75 μg protein in a 200 μL volume at 30° C. for 5 min. Enzyme assays for malonyl-CoA kinetics contained 100 mM potassium phosphate buffer (pH 7.0), 1.66-25 μM [2-^14C]-malonyl-CoA, 25 μM starter unit (palmitoleoyl-CoA), and 0.75 μg protein in a 200 μL volume at 30° C. for 5 min. Reactions were quenched by addition of 10 μL of 20% HCl. The products were extracted as described above, and were separated by thin layer chromatography (silica gel 60 F254; chloroform:ethyl acetate=70:30; 15 min). Product detection and formation was quantified through the use of the Cyclone storage phosphor system and OptiQuant 3.0 image analysis software (PerkinElmer, Wellesley, Mass.). Data were fit to the Michaelis-Menten equation using the Sigma Plot 9.01 enzyme kinetics module (Systat, Inc., San Jose, Calif.).
(§3) To explore this possibility, the predicted open reading frames encoded by O. sativa (cv. Nipponbare) LOC_Os05g12180, LOC_Os10g08620, and LOC_Os10g07040, were also expressed in E. coli as N-terminal polyhistidine fusions, and tested for alkylresorcinol synthase activity with the same panel of fatty acyl-CoA substrates used for recombinant ARS1 and ARS2 enzymatic studies (FIG. 4).

recombinant Os10g07040 = test system: recombinant Os10g07040
Description: as §1, §2, §3

recombinant Os10g08620 = test system: recombinant Os10g08620
Description: as §1, §2, §3

Row | SMILES | triketide pyrone derailment product, share of the total moles product derived from the starter (recombinant Os05g12180) | triketide pyrone derailment product, share of the total moles product formed (recombinant Os10g07040) | triketide pyrone derailment product, share of the total moles product formed (recombinant Os10g08620)
1 | CCCCCC(=O)SCCNC(=O)CCNC(=O)[C@H](O)C(C)(C)COP(=O)(O)OP(=O)(O)OC[C@H]1O[C@@H](n2cnc3c(N)ncnc32)[C@H](O)[C@@H]1OP(=O)(O)O [caproyl-CoA] | ~11% | ~20% | ~17%
2 | CCCCCCCC(=O)SCCNC(=O)CCNC(=O)[C@H](O)C(C)(C)COP(=O)(O)OP(=O)(O)OC[C@H]1O[C@@H](n2cnc3c(N)ncnc32)[C@H](O)[C@@H]1OP(=O)(O)O [capryloyl-CoA] | approximately 7% | approximately 8% | approximately 8%
3 | CCCCCCCCCCCC(=O)SCCNC(=O)CCNC(=O)[C@H](O)C(C)(C)COP(=O)(O)OP(=O)(O)OC[C@H]1O[C@@H](n2cnc3c(N)ncnc32)[C@H](O)[C@@H]1OP(=O)(O)O [lauroyl-CoA] | approximately 8% | ~6% | –
4 | CCCCCCCCCCCCCC(=O)SCCNC(=O)CCNC(=O)[C@H](O)C(C)(C)COP(=O)(O)OP(=O)(O)OC[C@H]1O[C@@H](n2cnc3c(N)ncnc32)[C@H](O)[C@@H]1OP(=O)(O)O [myristoyl-CoA] | – | < 5% | –
